# According to PubChem BioAssay AID2685 (National Center for Advancing Translational Sciences (NCATS), 2010):
# This is one part of the list. These are further read-outs of the screen, such as a control signal, another cell line or another target. No call is given for them. Compounds called inactive in the main read-out are mostly missing here. The note in brackets gives the kind of curve behind each potency; many fits are weak.
# Experiment: qHTS Assay for Lipid Storage Modulators in Drosophila S3 Cells;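 for cell number change: cells counted by Cell Tracker Red CMTPX staining in the red channel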
# Details: BODIPY lipid droplet fluorescence, 18-24 h; for cell number change: measured here: cell count max response, cells fed with added oleic acid
# In short: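 Drosophila S3 cells loaded with oleic acid (400 uM, as added) and compounds at several concentrations; lipid droplets imaged by 488-nm laser-scanning cytometry, 500–530 nm intensity and object ratio to cell channel. Percent activity normalized to 20 uM Triacsin C.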
# [1] = measured here: lipid fluorescence (Fed channel) AC50, cells fed with added oleic acid
# [2] = measured here: cell number channel AC50, cells fed with added oleic acid
SMILES,cell number change,AC50 [1],AC50 [2]
Cc1ccc(S(=O)(=O)N2CCOCC2)cc1NC(=O)COC(=O)CNC(=O)c1ccc(Oc2ccccc2)cc1,16.1%,"3.26 µM [falling, partial curve, poor fit]",–
COc1ccccc1NC(=O)Nc1nnc(-c2ccco2)s1,-35.1%,"23.1 µM [falling, single point]","29.1 µM [falling, single point]"
O=C(COC(=O)C1CCC1)Nc1ccc(OC(F)F)cc1,-3.02%,"0.013 µM [falling, full curve, poor fit]",–
CCOC(=O)C1(Cc2cccc(OC)c2)CCN(Cc2cccc(OCC)c2O)CC1,-23.7%,"0.103 µM [falling, full curve, poor fit]",–
O=C1NC(=S)N/C1=C/c1cc([N+](=O)[O-])ccc1O,47.7%,"0.58 µM [falling, full curve]","29.1 µM [rising, single point]"
CCN(CC(=O)Nc1ccccc1C(F)(F)F)C(=O)c1ccccc1SCC(=O)N1CCCC1,–,"20.6 µM [falling, single point]","0.461 µM [rising, full curve]"
COc1ccc(-n2nnnc2SCC(=O)Nc2cccc(O)c2)cc1,9.97%,–,–
COc1ccc(N/C=C/C(=O)c2ccccc2)cc1,-12.8%,"29.1 µM [falling, single point]",–
Cc1cc(C)n2nc(CC(=O)NC3CCCCCC3)nc2n1,-7.5%,"1.46 µM [rising, full curve, poor fit]",–
COC(=O)c1ccc(N(CC(=O)NC2CCCC2)C(=O)c2ccc(C)s2)cc1,-10.3%,"29.1 µM [rising, single point]",–
Cc1ccc(Cn2nc(C)c(NC(=O)CCCn3nc(C)c([N+](=O)[O-])c3C)c2C)cc1,-37.9%,–,–
CN1CCN(Cc2cc(=O)oc3cc4c(cc23)CCC4)CC1,27.1%,"4.11 µM [rising, single point]",–
CC(=O)N1N=C(c2ccc(NS(=O)(=O)c3ccccc3)cc2)CC1c1ccco1 (configuration not stated),–,"2.59 µM [falling, full curve]",–
CCOC(=O)N1CCC(NC(=O)c2ccc3c(c2)N(Cc2ccc(F)cc2)CCS3)CC1,-50.1%,"0.00461 µM [falling, full curve, poor fit]","18.4 µM [falling, partial curve, poor fit]"
Cc1ccc(S(=O)(=O)Nc2nc(C)cc(-n3nc(C)cc3C)n2)cc1,–,–,"2.91 µM [rising, single point]"
COc1ccc(-c2cc3n(n2)CCc2nc4ccccc4n2-3)cc1,-49.8%,–,"16.4 µM [falling, single point]"
Cc1nnc(SCCOc2ccccc2)s1,-31.9%,–,"29.1 µM [falling, single point]"
CS(=O)(=O)Nc1ccc(C2=NN(S(C)(=O)=O)C(c3ccccc3)C2)cc1 (configuration not stated),-7.72%,–,"0.651 µM [rising, single point]"
C=CCOc1c(Cl)cc(CNCCC)cc1Cl,-8.15%,"1.3 µM [falling, full curve, poor fit]",–
COc1ccc(CNS(=O)(=O)NCc2ccc(C)cc2)cc1,-24.6%,–,"0.103 µM [falling, full curve, poor fit]"

SMILES,cell number change,AC50 [1],AC50 [2]
CCOC(=O)CC(NC(=O)C(CC)c1ccccc1)c1ccccc1Cl (configuration not stated),-2.82%,"16.4 µM [falling, single point]",–
O=[N+]([O-])c1ccc(S(=O)(=O)Nc2ccc3c(c2)OCCO3)cc1,12.9%,–,–
Cc1ccc(C(=O)/C=C/C(=O)O)cc1,-49%,"18.4 µM [falling, partial curve]","20.6 µM [falling, single point]"
Cn1c2c(c(=O)n(C)c1=O)C(CC(=O)Nc1ccccc1)C(=O)N2 (configuration not stated),57.4%,–,"29.1 µM [rising, single point]"
O=C(CSc1nncc2ccccc12)Nc1ccccc1,-13.9%,–,–
Cc1ccccc1-n1c(=O)cc(N2CCCCCC2)[nH]c1=O,1.09%,"0.731 µM [falling, partial curve]","0.517 µM [falling, partial curve]"
CC(=O)NCCc1cnc[nH]1,0.291%,–,–
CCn1cc(CN2CCC(C(=O)Nc3ccc(Oc4ccccc4)nc3)CC2)cn1,78.9%,–,"25.9 µM [rising, single point]"
O=C1C2=C(C(=O)c3ccccc31)C1O[C@](CCCCN3C(=O)c4ccccc4C3=O)(Cc3c1ccc1ccccc31)O2,29.6%,"0.473 µM [rising, full curve, poor fit]",–
CC1CCCCN1CC(=O)NC(c1ccccc1)c1ccccc1 (configuration not stated),-0.873%,"14.6 µM [falling, partial curve]",–
O=C(CC(c1ccccc1)c1ccccc1)NCCOCc1ccccc1,-18.1%,"18.4 µM [falling, partial curve]",–
O=C(COc1cc(Cl)c(Cl)cc1Cl)Nc1cccc(O)c1,-37.6%,"0.146 µM [falling, full curve, poor fit]","23.1 µM [falling, single point]"
Cc1ccccc1S(=O)(=O)Cc1ccc(C(=O)NCCCOC(C)C)o1,48%,"1.16 µM [rising, full curve]","1.46 µM [rising, full curve]"
Cc1ccc(NC(=O)C2CCN(S(=O)(=O)c3c(C)noc3/C=C/N(C)C)CC2)cc1,5.66%,"18.4 µM [rising, partial curve]",–
COc1cc(/C=N/NC(=O)C(=O)NCc2cccnc2)cc(OC)c1OC,10.9%,"0.731 µM [falling, single point]",–
CC(C)OC(=O)Cn1c(-c2ccccc2)c(-c2ccccc2)nnc1=O,-16%,–,–
COC(=O)c1ccccc1NC(=O)CSc1nc(NC(=O)c2ccccc2)c2c(C)c(C)oc2n1,-1.42%,"0.411 µM [rising, partial curve]",–
O=C(Nc1ccc(Cl)c(Cl)c1)Nc1ccc(N2CCCC2)c(S(=O)(=O)Nc2ccccc2Cl)c1,-42.7%,"14.6 µM [falling, partial curve]","18.4 µM [falling, single point]"
Cc1cccc(OCC(=O)N/N=C/C=C/c2ccco2)c1,-47%,"0.82 µM [falling, full curve, poor fit]","5.17 µM [falling, partial curve, poor fit]"
O=C(NCCCCc1ccccc1)Nc1ccc(F)cc1,40.4%,–,"0.501 µM [rising, full curve]"

SMILES,cell number change,AC50 [1],AC50 [2]
O=S(=O)(CCN1CCOCC1)c1ccc(Oc2ccc(S(=O)(=O)CCN3CCOCC3)cc2)cc1,-37.4%,–,"4.61 µM [falling, partial curve]"
Cc1cccc2c(=O)c(C(=O)N3CCCCCC3)c[nH]c12,-0.203%,–,–
Cc1oc2c(c1C(=O)NCc1cc(C(=O)O)co1)CCCC2,34.9%,"0.164 µM [falling, full curve, poor fit]","8.2 µM [rising, partial curve, poor fit]"
COc1ccc(S(=O)(=O)N(C)C)cc1NCC(=O)Nc1ccc(F)cc1F,16.7%,–,"4.61 µM [falling, single point]"
COC(=O)[C@@]12CCCCN1[C@H](c1ccc(-c3ccc(F)cc3)cc1)[C@@H]1C(=O)N(C)C(=O)[C@@H]12,-17.4%,"9.2 µM [falling, partial curve]","0.116 µM [falling, full curve, poor fit]"
COc1ccc(-c2nnc(SCC(=O)N(Cc3ccccc3)C(C)(C)C)o2)cc1OC,-33.1%,"29.1 µM [falling, partial curve, poor fit]","14.6 µM [falling, partial curve, poor fit]"
CS(=O)(=O)C1=NSC2=NC(=O)/C(=C\c3ccc(-c4ccccc4)o3)C(=N)N21,13.7%,"1.84 µM [rising, full curve, poor fit]",–
CNc1ccccc1C(C)(C)c1cc(-c2cccc(Br)c2)no1,–,"4.61 µM [falling, partial curve, poor fit]",–
COc1ccc(N=C(C)C2=C(O)c3ccccc3C2=O)cc1,-31.6%,"13 µM [falling, partial curve]","0.231 µM [falling, full curve, poor fit]"
CC(=O)c1ccccc1OCCOc1ncnc2sccc12,37.9%,–,"1.64 µM [rising, full curve, poor fit]"
Cc1ccccc1Oc1nc2c(c(=O)n(C)c(=O)n2C)n1C,–,"29.1 µM [rising, partial curve, poor fit]",–
COCCN1CCN(C(=O)c2cc(COc3ccc(F)cc3F)on2)CC1,4.95%,–,–
Cc1ccc(N(CC(=O)N2CCOCC2)S(C)(=O)=O)cc1,-19.9%,"20.6 µM [falling, single point]",–
Cc1cc(C)nc(N2CCN(c3nnnn3-c3ccccc3)CC2)n1,30.1%,–,"23.1 µM [rising, single point]"
Cc1cc(NS(=O)(=O)c2ccc(NC(=O)C(C)Oc3ccc4c(C)cc(=O)oc4c3)cc2)no1 (configuration not stated),-3.97%,"0.164 µM [falling, full curve]",–
CCC(=O)c1ccc(OCC(=O)OCC(=O)NCc2cccs2)cc1,73.9%,"20.6 µM [rising, single point]","29.1 µM [rising, single point]"
COc1ccc(OC)c(NC(=O)c2cccnc2)c1,-6.93%,–,–
CCN(CC)S(=O)(=O)c1ccc(N2CCOCC2)c(NC(=O)c2ccc3c(c2)OCCO3)c1,35.1%,–,"29.1 µM [rising, single point]"

# Some of the entries so far, with tabs.
SMILES	cell number change	AC50 [1]	AC50 [2]
Cc1cccc2c(=O)c(C(=O)N3CCCCCC3)c[nH]c12	-0.203%	–	–
COc1ccc(-c2nnc(SCC(=O)N(Cc3ccccc3)C(C)(C)C)o2)cc1OC	-33.1%	29.1 µM [falling, partial curve, poor fit]	14.6 µM [falling, partial curve, poor fit]
Cc1ccc(N(CC(=O)N2CCOCC2)S(C)(=O)=O)cc1	-19.9%	20.6 µM [falling, single point]	–
Cc1cc(C)nc(N2CCN(c3nnnn3-c3ccccc3)CC2)n1	30.1%	–	23.1 µM [rising, single point]
